Reference: the supplement of paper PMC10338343
± gives the standard deviation. The entries are a selection whose mix differs from that of the whole data set. Many of these values have a large error.

The sequences below were run on EfPiwi piRISC loaded with piRNA #1 (26 nt) (assay: pre-steady-state target cleavage rate (min^-1); guide: piRNA #1 5'p-UGAGGUAGUAGGUUGUAUAGUAUCCA; MIWI and MILI are mouse PIWI proteins and EfPiwi is from a freshwater sponge; tags in brackets are library labels; higher = faster piRNA-guided slicing of the target). Conditions: auxiliary factor: 500 nM Ephydatia muelleri Gtsf1.
How it was run: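 A transcribed, DNA-blocked target RNA library […] was incubated at 33 °C for 0–8 or 0–960 min with 1 nM active affinity-purified piRISC carrying one synthetic guide, in HEPES–potassium acetate buffer with or without 500 nM GTSF1 partner protein. Uncleaved targets were then sequenced and normalised to depth and to weakly complementary targets. Data from three trials were pooled, with k3 capped at 0.0001 min^-1, and a burst-and-steady-state fit yielded the pre-steady-state cleavage rate.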

Sequence	pre-steady-state target cleavage rate
GGAGACCUAUCUAUACUACCUACUUCCUCA	0.0014 ± 0.0055
GGAGACCUUACUAUACAUCCAACUACCUCA	0.00298 ± 0.0044
GGAGUGGAUUCUAUACAACCUACUACCACA	0.00158 ± 0.0025
GGAGACCAUACUAAUGAACCUACUACCUCA	0.00242 ± 0.0043
GGAGACCUAUCUAUUCAACCUACUUCCUCA	0.0012 ± 0.0064
GGAGACCUAACUAUACUACCUUCUACCUCA	0.000838 ± 0.0084
GGAGACCUAUCUAUACAAGCUACAACCUCA	0.00113 ± 0.0047
GGAGACCUAUCUAUACUACCUUCUACCUCA	0.00101 ± 0.0051
GGAGACCUAACUAUACAACCCACUACCUCA	0.00404 ± 0.0036
GGAGACCUAACUAUACUACCUACUUCCUCA	0.00112 ± 0.0049
GGAGACCAUACUAUACAACCUACUUACCUCA	0.00697 ± 0.0031
GGAGAGGAUACUAAACAAGCUACUACCUCA	0.00412 ± 0.0017
GGAGACCUAACUAUAUCAACCUACUACCUCA	0.00397 ± 0.0043
GGAGACGAUAGUAUACAACCUUCUACCUCA	0.00129 ± 0.0032
GGAGACCAUACAAUACAACCAACUACCUCA	0.00183 ± 0.0057
GGAGAGGAUACUAUACAACCUACUACCAUCA	0.00705 ± 0.0029
GGAGACCUAACUAUAGAAGCUACUACCUCA	0.000937 ± 0.0079
GGAGACCUAUCUUUACAACCUACUAGCUCA	0.00135 ± 0.0044
GGAGACCUAUCUAAACAACCUUCUACCUCA	0.00108 ± 0.0062
GGAGACGAUACUAUACAAGCUACUAGCUCA	0.00375 ± 0.0019
GGAGACCUAACUUUACAACGUACUACCUCA	0.00252 ± 0.0048
GGAGUGGAUACUAAACAACCUACUAGCUCA	0.0013 ± 0.0025
GGAGACCACACUAUACAACCUACUACCUCA	0.0344 ± 0.015
GGAGAGGAUUGUAUACAACCUACUACCUCA	0.00676 ± 0.0048

Given bar-delimited: part of the list above
Sequence | pre-steady-state target cleavage rate
GGAGACCACACUAUACAACCUACUACCUCA | 0.0344 ± 0.015
GGAGAGGAUUGUAUACAACCUACUACCUCA | 0.00676 ± 0.0048
